According to the supplement of paper PMC7666118:
Some of the results follow.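 Rule for the calls: active = dose-dependent thermal stabilisation significant by F-test of dose-response against flat model at 10% FDR; inactive = not significant.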

The chains behind the UniProt entries cited, without tags or fusion partners. Where a name states a change or a piece, a line headed by the entry shows the natural chain unless it says otherwise.
UniProt Q8N9Q2: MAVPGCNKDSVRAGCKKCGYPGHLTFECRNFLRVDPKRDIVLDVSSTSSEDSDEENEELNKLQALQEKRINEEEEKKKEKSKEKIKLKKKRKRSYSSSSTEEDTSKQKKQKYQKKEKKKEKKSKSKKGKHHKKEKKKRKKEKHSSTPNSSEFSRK
UniProt O95149, whole entry: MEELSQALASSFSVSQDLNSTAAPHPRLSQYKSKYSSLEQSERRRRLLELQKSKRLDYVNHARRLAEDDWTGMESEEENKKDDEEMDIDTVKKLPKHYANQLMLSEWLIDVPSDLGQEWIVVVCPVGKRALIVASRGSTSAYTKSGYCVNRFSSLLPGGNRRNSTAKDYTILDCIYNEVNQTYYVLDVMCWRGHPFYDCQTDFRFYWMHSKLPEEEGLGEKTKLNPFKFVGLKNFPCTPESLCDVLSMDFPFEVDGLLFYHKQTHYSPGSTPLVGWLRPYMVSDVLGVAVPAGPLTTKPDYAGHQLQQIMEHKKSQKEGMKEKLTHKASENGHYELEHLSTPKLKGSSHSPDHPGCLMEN
UniProt O00268, whole entry: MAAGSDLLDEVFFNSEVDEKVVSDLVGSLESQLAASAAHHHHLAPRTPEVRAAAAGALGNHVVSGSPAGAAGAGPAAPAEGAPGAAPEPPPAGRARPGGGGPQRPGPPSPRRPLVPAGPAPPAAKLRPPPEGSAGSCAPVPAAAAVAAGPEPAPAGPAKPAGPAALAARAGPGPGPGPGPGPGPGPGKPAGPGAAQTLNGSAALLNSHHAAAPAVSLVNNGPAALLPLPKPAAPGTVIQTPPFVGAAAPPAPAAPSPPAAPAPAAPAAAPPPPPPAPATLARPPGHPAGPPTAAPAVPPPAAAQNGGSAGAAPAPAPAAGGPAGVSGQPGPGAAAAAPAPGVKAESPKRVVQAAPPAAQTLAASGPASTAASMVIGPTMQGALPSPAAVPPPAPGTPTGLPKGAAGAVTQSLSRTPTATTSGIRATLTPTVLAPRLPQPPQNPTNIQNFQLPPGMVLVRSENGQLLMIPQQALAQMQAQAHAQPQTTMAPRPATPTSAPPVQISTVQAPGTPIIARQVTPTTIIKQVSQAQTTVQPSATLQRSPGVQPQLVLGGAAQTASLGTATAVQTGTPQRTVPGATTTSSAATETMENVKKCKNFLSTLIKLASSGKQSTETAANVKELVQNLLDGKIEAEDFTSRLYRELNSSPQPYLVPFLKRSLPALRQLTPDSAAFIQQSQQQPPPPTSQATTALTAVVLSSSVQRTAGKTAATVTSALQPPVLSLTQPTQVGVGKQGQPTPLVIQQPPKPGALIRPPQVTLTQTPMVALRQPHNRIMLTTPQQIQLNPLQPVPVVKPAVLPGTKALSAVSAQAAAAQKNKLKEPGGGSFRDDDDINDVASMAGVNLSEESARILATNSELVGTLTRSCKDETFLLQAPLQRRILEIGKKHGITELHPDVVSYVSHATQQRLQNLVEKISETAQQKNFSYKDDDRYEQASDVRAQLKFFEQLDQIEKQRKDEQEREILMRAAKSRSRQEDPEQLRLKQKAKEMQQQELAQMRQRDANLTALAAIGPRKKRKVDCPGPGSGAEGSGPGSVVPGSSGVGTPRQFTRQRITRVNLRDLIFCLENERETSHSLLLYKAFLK
UniProt Q92797: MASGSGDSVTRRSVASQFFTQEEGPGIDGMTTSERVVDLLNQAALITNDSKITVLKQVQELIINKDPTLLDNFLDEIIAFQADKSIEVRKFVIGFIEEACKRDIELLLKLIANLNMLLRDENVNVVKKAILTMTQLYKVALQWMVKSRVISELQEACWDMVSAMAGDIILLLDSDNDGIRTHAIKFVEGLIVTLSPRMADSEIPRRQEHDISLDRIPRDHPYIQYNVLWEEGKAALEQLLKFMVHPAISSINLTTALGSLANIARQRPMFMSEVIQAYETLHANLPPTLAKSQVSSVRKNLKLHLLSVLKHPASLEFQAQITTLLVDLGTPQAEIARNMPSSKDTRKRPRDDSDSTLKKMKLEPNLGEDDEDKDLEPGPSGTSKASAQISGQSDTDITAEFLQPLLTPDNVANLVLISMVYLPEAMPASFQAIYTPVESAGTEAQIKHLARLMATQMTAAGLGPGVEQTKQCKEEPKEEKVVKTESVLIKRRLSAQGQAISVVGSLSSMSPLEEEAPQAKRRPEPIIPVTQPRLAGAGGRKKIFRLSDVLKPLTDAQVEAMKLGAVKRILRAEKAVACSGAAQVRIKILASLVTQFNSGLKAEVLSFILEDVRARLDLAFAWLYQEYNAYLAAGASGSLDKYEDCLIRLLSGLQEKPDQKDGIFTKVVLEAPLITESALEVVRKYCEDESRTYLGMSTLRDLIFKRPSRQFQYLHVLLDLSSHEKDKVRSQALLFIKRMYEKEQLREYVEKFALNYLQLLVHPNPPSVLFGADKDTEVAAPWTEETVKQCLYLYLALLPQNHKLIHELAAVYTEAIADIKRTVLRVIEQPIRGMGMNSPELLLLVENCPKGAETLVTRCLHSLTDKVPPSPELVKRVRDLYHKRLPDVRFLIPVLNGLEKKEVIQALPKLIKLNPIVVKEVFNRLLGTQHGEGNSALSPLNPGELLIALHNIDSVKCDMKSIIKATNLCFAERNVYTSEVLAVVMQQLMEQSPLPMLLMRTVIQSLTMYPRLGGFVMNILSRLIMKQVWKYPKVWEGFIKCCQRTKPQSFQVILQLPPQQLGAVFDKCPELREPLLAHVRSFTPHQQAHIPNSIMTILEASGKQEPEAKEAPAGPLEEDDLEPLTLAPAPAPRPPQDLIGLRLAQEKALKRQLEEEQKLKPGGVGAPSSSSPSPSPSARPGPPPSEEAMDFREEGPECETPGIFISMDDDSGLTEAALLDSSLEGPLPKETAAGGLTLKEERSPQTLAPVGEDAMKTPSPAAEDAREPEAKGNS
UniProt Q6ZWJ1: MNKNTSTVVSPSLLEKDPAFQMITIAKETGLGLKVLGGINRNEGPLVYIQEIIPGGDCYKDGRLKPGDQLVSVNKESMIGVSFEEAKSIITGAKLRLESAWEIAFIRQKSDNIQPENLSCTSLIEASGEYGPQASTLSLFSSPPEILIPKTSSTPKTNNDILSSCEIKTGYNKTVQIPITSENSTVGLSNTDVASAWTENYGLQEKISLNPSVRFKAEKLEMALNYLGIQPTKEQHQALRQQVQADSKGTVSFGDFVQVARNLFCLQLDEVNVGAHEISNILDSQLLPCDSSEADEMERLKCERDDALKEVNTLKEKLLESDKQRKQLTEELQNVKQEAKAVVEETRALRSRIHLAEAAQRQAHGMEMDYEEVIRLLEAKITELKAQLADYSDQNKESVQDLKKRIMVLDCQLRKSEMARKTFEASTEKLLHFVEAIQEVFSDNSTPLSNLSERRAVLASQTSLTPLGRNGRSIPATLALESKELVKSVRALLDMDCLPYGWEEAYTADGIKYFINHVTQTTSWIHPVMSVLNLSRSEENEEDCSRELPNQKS
UniProt P62308, whole entry: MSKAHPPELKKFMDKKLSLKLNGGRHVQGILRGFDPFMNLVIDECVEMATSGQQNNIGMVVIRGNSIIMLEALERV
UniProt P49848, whole entry: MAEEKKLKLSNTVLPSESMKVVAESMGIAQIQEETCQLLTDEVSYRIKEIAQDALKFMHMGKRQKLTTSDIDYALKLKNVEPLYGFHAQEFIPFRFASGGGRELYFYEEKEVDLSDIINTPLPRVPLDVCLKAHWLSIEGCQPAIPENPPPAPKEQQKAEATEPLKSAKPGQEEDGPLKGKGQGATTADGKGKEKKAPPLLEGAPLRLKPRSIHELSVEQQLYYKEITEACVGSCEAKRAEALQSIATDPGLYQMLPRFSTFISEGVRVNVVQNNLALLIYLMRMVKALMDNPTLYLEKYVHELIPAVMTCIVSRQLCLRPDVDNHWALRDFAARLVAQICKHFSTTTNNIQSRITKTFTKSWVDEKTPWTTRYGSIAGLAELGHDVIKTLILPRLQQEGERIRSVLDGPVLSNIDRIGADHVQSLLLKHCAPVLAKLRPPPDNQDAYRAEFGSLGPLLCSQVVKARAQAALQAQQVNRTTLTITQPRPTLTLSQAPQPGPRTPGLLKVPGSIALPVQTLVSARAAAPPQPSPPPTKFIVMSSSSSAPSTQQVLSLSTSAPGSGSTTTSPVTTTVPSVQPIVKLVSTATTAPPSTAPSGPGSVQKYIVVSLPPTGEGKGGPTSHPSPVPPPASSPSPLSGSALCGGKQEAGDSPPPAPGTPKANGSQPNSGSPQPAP
UniProt Q99523, whole entry: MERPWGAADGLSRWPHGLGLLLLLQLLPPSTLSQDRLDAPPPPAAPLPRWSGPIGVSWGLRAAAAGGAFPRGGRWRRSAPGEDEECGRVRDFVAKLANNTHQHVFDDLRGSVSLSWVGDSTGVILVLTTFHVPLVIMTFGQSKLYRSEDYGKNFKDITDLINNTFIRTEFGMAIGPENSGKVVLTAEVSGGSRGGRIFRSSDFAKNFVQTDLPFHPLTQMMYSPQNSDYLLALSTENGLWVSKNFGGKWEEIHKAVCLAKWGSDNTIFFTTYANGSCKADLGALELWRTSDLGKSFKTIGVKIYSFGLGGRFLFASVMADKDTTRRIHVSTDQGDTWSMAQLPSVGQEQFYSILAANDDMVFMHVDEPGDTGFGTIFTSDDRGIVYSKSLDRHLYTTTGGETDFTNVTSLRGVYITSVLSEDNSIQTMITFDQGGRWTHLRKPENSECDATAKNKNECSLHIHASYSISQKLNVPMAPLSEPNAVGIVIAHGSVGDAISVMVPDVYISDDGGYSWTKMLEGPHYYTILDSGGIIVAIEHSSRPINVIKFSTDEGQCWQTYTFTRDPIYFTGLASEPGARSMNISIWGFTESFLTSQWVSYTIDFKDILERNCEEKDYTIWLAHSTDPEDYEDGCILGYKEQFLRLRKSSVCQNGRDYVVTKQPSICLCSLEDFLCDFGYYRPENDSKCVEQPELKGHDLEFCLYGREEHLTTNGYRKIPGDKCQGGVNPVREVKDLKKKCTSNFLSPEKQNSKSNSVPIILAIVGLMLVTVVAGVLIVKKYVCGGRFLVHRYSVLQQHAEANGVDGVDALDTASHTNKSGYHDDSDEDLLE
UniProt P84022, whole entry, looked up: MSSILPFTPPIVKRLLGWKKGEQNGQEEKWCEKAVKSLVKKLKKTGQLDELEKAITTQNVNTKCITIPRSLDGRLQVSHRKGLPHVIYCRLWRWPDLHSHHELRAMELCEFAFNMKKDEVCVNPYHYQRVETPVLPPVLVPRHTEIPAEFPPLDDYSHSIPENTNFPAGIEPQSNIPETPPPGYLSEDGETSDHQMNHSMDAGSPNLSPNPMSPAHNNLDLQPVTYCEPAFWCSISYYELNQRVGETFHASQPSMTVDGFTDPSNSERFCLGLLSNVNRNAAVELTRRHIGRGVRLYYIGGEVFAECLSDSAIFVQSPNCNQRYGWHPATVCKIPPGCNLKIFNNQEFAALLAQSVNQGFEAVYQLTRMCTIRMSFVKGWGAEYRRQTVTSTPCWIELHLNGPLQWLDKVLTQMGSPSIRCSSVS
UniProt O43295: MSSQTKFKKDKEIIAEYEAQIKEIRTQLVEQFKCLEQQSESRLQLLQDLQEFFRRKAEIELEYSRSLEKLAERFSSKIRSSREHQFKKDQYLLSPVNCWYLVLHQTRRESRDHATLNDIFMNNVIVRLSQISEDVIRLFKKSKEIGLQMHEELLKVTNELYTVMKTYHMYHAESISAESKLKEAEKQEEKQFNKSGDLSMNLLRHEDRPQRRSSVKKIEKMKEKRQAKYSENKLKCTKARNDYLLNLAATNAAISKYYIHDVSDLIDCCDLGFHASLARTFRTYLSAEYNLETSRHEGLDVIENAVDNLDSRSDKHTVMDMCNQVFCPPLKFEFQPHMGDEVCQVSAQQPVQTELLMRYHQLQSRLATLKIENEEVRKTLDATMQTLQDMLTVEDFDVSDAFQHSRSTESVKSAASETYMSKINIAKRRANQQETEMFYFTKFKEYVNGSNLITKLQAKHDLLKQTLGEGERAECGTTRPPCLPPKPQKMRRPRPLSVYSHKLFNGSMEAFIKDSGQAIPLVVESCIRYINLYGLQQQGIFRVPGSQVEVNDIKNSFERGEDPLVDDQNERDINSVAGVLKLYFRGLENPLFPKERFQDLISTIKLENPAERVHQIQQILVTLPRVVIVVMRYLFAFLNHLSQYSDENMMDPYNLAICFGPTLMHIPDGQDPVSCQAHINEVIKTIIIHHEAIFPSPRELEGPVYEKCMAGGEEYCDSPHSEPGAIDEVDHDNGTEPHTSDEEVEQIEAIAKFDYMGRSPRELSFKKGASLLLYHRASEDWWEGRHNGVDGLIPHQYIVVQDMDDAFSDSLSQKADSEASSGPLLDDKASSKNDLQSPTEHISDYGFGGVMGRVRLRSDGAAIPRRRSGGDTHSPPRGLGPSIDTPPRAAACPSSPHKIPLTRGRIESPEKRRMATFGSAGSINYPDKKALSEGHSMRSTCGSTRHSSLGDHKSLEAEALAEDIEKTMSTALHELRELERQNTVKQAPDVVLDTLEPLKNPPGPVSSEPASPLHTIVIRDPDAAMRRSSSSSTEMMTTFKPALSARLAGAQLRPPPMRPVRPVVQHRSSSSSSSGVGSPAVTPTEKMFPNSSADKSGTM

Compound: Nc1nc2c(ncn2[C@@H]2O[C@H](COP(=O)(O)OP(=O)(O)OP(=O)(O)O)[C@@H](O)[C@H]2O)c(=O)[nH]1
Assay: dose-dependent thermal stabilisation call (2D-TPP, DLPTP, 10% FDR) (binary (1 = stabilised)); higher = stabilised by the compound
Conditions: system: Jurkat gel-filtered lysate; concentration range 1-500 µM

Target: STK10 (UniProt O94804)
- dose-dependent thermal stabilisation call: inactive: 0

Target: SOS1 (UniProt Q07889)
- dose-dependent thermal stabilisation call: inactive: 0

Target: SPN (UniProt P16150)
- dose-dependent thermal stabilisation call: inactive: 0

Target: SYNRG (UniProt Q9UMZ2)
- dose-dependent thermal stabilisation call: inactive: 0

Target: SMARCB1 (UniProt Q12824)
- dose-dependent thermal stabilisation call: inactive: 0

Target: SMU1 (UniProt Q2TAY7)
- dose-dependent thermal stabilisation call: inactive: 0

Target: STX8 (UniProt Q9UNK0)
- dose-dependent thermal stabilisation call: inactive: 0

Target: SREK1IP1 (UniProt Q8N9Q2)
- dose-dependent thermal stabilisation call: inactive: 0

Target: SNUPN (UniProt O95149)
- dose-dependent thermal stabilisation call: active: 1

Target: SPAST (UniProt Q9UBP0)
- dose-dependent thermal stabilisation call: active: 1

Target: TAF4 (UniProt O00268)
- dose-dependent thermal stabilisation call: inactive: 0

Target: SOD1 (UniProt P00441)
- dose-dependent thermal stabilisation call: inactive: 0

Target: SYMPK (UniProt Q92797)
- dose-dependent thermal stabilisation call: active: 1

Target: SVIL (UniProt O95425)
- dose-dependent thermal stabilisation call: inactive: 0

Target: SOD2 (UniProt P04179)
- dose-dependent thermal stabilisation call: inactive: 0

Target: SNRNP27 (UniProt Q8WVK2)
- dose-dependent thermal stabilisation call: inactive: 0

Target: STXBP5 (UniProt Q5T5C0)
- dose-dependent thermal stabilisation call: inactive: 0

Target: SIRT1 (UniProt Q96EB6)
- dose-dependent thermal stabilisation call: active: 1

Target: STXBP4 (UniProt Q6ZWJ1)
- dose-dependent thermal stabilisation call: inactive: 0

Target: SMG5 (UniProt Q9UPR3)
- dose-dependent thermal stabilisation call: inactive: 0

Target: SNRPG (UniProt P62308)
- dose-dependent thermal stabilisation call: inactive: 0

Target: TAF6 (UniProt P49848)
- dose-dependent thermal stabilisation call: inactive: 0

Target: STARD7 (UniProt Q9NQZ5)
- dose-dependent thermal stabilisation call: inactive: 0

Target: SORT1 (UniProt Q99523)
- dose-dependent thermal stabilisation call: inactive: 0

Target: SRA1 (UniProt Q9HD15)
- dose-dependent thermal stabilisation call: inactive: 0

Target: SLK (UniProt Q9H2G2)
- dose-dependent thermal stabilisation call: inactive: 0

Target: SORD (UniProt Q00796)
- dose-dependent thermal stabilisation call: active: 1

Target: SNAP29 (UniProt O95721)
- dose-dependent thermal stabilisation call: inactive: 0

Target: SMAD3 (UniProt P84022)
- dose-dependent thermal stabilisation call: active: 1

Target: TACC1 (UniProt O75410)
- dose-dependent thermal stabilisation call: inactive: 0

Target: STRBP (UniProt Q96SI9)
- dose-dependent thermal stabilisation call: inactive: 0

Target: SNX1 (UniProt Q13596)
- dose-dependent thermal stabilisation call: inactive: 0

Target: STAT6 (UniProt P42226)
- dose-dependent thermal stabilisation call: active: 1

Target: SUZ12 (UniProt Q15022)
- dose-dependent thermal stabilisation call: active: 1

Target: SRGAP3 (UniProt O43295)
- dose-dependent thermal stabilisation call: inactive: 0

Target: STAM2 (UniProt O75886)
- dose-dependent thermal stabilisation call: inactive: 0
